In patent EP0324130A2, “8-Glycine, 16-X, Des-19-Leucine-Calcitonin” (RORER INTERNATIONAL (OVERSEAS) INC. (a Delaware corporation), priority 1987, dated 1989):
At least one peptide structure holds a part that was inferred or is arguable (an end, a ring closure or a residue).

System: serum calcium concentration
Details: standard salmon calcitonin used in the assay; independently determined

CC(C)C[C@H](NC(=O)[C@H](CCCCN)NC(=O)CNC(=O)[C@H](CC(C)C)NC(=O)[C@@H](NC(=O)[C@@H]1CSSC[C@H](N)C(=O)N[C@@H](CO)C(=O)N[C@@H](CC(N)=O)C(=O)N[C@@H](CC(C)C)C(=O)N[C@@H](CO)C(=O)N[C@@H]([C@@H](C)O)C(=O)N1)C(C)C)C(=O)N[C@@H](CO)C(=O)N[C@@H](CCC(N)=O)C(=O)N[C@@H](CCC(=O)O)C(=O)N[C@@H](CC(C)C)C(=O)N[C@@H](Cc1c[nH]cn1)C(=O)N[C@@H](CCCCN)C(=O)N[C@@H](CC(C)C)C(=O)N[C@@H](CCC(N)=O)C(=O)N[C@H](C(=O)N[C@@H](Cc1ccc(O)cc1)C(=O)N1CCC[C@H]1C(=O)N[C@@H](CCCNC(=N)N)C(=O)N[C@H](C(=O)N[C@@H](CC(N)=O)C(=O)N[C@H](C(=O)NCC(=O)N[C@@H](CO)C(=O)NCC(=O)N[C@H](C(=O)N1CCC[C@H]1C(N)=O)[C@@H](C)O)[C@@H](C)O)[C@@H](C)O)[C@@H](C)O [standard salmon calcitonin, salmon calcitonin]
biological potency of the standard (content): greater than 4,000 IU/mg
